# Record: PubChem BioAssay AID1159578 (Peter MacCallum Cancer Centre, 2015)
# Assay: 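Knock-downs that alter how fast lymphatic endothelial cells migrate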 (primary screen)
# Cells: human lymphatic endothelial cells
# Reagent: siRNA pool against human genes, 40 nM
# Timing: 48 h after transfection
# Measurement: 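Cells stained with dye and imaged after a scratch; covered wound area and nuclei counted, duplicates averaged, migration set against mock wells and turned into a robust z-score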
# Direction: migration robust z-score: higher = faster migration into the scratch; nuclei per well: higher = more cells in the well
# Rule for the call: 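Migration changed when robust z exceeds 2 or falls below -2 and mean nuclei number is at least 3300; otherwise not called changed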
# Calls: active = migration changed; inactive = no migration change, or too few cells
# The deposit covers about 18,000 reagents; below is a random part of them. About 1,030 of all reagents (5.7%) count as active. 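Inactive calls also include pools with fewer than 3300 nuclei, whose migration was not assessed.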 Raw values are not corrected between plates. Further read-outs or replicates are left out here.
target,migration robust z-score,migration class with cell-count check,"nuclei per well, duplicate mean",outcome
TMEM35A,0.19,migration z between -2 and 2; enough cells,6075,inactive
DMKN,0.16,migration z between -2 and 2; enough cells,6434,inactive
ACP2,-2.02,migration z below -2; enough cells,5750,active
PGBD3,0.7,migration z between -2 and 2; enough cells,5130,inactive
APOL5,0.94,migration z between -2 and 2; enough cells,5456,inactive
OR7A17,-0.43,migration z between -2 and 2; enough cells,6384,inactive
PELI2,-0.22,migration z between -2 and 2; enough cells,5070,inactive
NEK6,-1.48,migration z between -2 and 2; enough cells,4742,inactive
CILP,-0.16,migration z between -2 and 2; enough cells,4672,inactive
RIOX1,0.9,migration z between -2 and 2; enough cells,5222,inactive
FCRL3,-0.56,migration z between -2 and 2; enough cells,6122,inactive
SOX9,-0.52,migration z between -2 and 2; enough cells,3852,inactive
CBR4,0.21,migration z between -2 and 2; enough cells,6298,inactive
MAP2K7,-1.82,migration z between -2 and 2; enough cells,3643,inactive
RASA1,0.22,migration z between -2 and 2; enough cells,6560,inactive
COL21A1,-0.02,migration z between -2 and 2; enough cells,5376,inactive
EYA2,-0.05,migration z between -2 and 2; enough cells,5188,inactive
RPS6KA1,0.26,migration z between -2 and 2; enough cells,6024,inactive
WFDC9,-0.58,migration z between -2 and 2; enough cells,5909,inactive
TBC1D3B,0.53,migration z between -2 and 2; enough cells,7352,inactive
GAPDHS,-0.3,migration z between -2 and 2; enough cells,5852,inactive
LPA,-0.62,migration z between -2 and 2; enough cells,4645,inactive
TRIM74,0.42,migration z between -2 and 2; enough cells,6401,inactive
CCT4,-3.55,under 3300 nuclei; migration not judged,3249,inactive
LHFPL6,0.26,migration z between -2 and 2; enough cells,5202,inactive
PDCL2,-0.12,migration z between -2 and 2; enough cells,4867,inactive
CCNB1IP1,0.72,migration z between -2 and 2; enough cells,5644,inactive
PPP1R12A,-1.53,migration z between -2 and 2; enough cells,5176,inactive
IL26,-0.05,migration z between -2 and 2; enough cells,5946,inactive
BEND2,-0.12,migration z between -2 and 2; enough cells,6693,inactive
UBE3B,1.76,migration z between -2 and 2; enough cells,4943,inactive
CLOCK,1.3,migration z between -2 and 2; enough cells,6145,inactive
CD3D,-0.32,migration z between -2 and 2; enough cells,5938,inactive
EVI2A,-1.42,migration z between -2 and 2; enough cells,5576,inactive
PNMA2,0.54,migration z between -2 and 2; enough cells,6352,inactive
RALA,0.18,migration z between -2 and 2; enough cells,5614,inactive
ZBTB25,0.3,migration z between -2 and 2; enough cells,6228,inactive
PLCXD1,0.7,migration z between -2 and 2; enough cells,3684,inactive
MRPL3,1.68,migration z between -2 and 2; enough cells,5832,inactive
